Experimental data as given in publication PMC12627471.
No constants are given. Whether binding was seen depends on the method and setting. Binding seen in cells or lysates may run through a third protein. Some binding calls cover weakened binding; strength is not graded here.

Amino acid sequences for entries named in this document (tags omitted).
UniProt P14618: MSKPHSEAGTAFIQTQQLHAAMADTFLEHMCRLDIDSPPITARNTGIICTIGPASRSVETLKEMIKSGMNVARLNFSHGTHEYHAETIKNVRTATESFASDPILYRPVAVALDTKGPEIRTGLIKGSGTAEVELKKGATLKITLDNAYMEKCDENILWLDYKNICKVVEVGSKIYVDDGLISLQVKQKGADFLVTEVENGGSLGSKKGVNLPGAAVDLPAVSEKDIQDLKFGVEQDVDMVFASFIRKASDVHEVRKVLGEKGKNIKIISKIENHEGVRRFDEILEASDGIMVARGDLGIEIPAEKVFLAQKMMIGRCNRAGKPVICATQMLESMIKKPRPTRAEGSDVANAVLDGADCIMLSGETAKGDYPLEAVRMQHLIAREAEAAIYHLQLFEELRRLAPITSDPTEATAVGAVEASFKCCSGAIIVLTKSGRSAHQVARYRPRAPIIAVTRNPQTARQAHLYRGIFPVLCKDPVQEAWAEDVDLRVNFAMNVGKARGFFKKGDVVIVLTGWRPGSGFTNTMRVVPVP

Target: T1, Transketolase (TKT) (human) (UniProt P29401)
T1 sequence: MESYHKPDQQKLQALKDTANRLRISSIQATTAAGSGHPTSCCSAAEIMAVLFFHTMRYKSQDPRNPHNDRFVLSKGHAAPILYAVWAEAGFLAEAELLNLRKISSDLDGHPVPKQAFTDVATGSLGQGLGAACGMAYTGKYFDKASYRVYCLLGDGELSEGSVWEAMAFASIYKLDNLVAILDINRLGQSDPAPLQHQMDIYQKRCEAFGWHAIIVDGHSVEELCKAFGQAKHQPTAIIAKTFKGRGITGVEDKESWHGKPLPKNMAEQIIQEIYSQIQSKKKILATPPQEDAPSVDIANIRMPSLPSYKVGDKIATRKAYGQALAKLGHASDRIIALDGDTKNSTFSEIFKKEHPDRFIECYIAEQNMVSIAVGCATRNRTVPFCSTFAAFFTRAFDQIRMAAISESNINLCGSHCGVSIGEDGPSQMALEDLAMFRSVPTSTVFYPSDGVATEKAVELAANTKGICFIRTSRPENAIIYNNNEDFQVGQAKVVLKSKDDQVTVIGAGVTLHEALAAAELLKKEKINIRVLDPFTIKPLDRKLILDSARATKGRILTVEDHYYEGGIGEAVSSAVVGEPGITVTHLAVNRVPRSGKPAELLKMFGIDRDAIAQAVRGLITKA
Test: co-IP; ACHN cells lysed in Cell Lysis Buffer for Western and IP; primary antibody overnight at 4 °C; protein A/G-agarose beads 2 h at 4 °C; three washes with lysis buffer; western blot

binding: binds
Substance: Pyruvate kinase M2 (PKM2) (from UniProt P14618 1-531) (enzyme)
